Tested on: retinoic acid oxidation (cytochrome P450 systems)
Experiment: Assay for NADPH Dependent Retinoic Acid Oxidation, liver microsomes
Assay type: biochemical, rat
Details: 100 μM compound
Method: 2.2 Isolation of rat liver microsomes (modified from R. Martini & M. Murray, “Participation of P450 3A Enzymes in Rat Hepatic Microsomal Renitoic Acid 4-Hydroxylation”, Archives Biochem. Biophys. 303, 57-66 (1993)).
The resulting homogenate was successively centrifuged for 30 min. at 10,000 g, 30 min. at 20,000 g, and 15 min. at 30,000 g, and the resulting supernatant was ultracentrifuged for 80 min. at 105,000 g. […] Protein concentrations were determined as described above.
303, 57-66 (1993). […] On the day of the assay, prepare a 60 mM NADPH solution in buffer.
Quench with acidified ethanol/BHT and extract with hexane/BHT as described above.
Aliquots of 60 μL were injected immediately and analyzed for retinoid content.
The chromatography instrumentation consisted of a Waters 600 gradient controller/pump, a Waters 996 Photodiode Array detector and a Waters 474 Scanning Fluorescence detector. Two HPLC protocols were used for retinoid analysis. […] The eluate was monitored for absorbance at 325 nm and fluorescence at 325 ex/480 em. […] 189, 136-145 (1990). This system consisted of a 20 min. linear gradient from 68:32 (v/v) methanol/ water containing 10 mM ammonium acetate to 4:1 (v/v) methanol:dichloromethane followed by a 5 min. hold at a flow rate of 1 mL/min.

- % Inhibition Retinoic Acid (100 μM): 85%
SMILES: Clc1ccccc1C(c1ccccc1)(c1ccccc1)n1ccnc1 [Clotrimazole]
